This note sets out measurements from article PMC13394485.

Protein sequences, listed by entry. Tags and fused reporters are not part of them.
UniProt Q9UKV8: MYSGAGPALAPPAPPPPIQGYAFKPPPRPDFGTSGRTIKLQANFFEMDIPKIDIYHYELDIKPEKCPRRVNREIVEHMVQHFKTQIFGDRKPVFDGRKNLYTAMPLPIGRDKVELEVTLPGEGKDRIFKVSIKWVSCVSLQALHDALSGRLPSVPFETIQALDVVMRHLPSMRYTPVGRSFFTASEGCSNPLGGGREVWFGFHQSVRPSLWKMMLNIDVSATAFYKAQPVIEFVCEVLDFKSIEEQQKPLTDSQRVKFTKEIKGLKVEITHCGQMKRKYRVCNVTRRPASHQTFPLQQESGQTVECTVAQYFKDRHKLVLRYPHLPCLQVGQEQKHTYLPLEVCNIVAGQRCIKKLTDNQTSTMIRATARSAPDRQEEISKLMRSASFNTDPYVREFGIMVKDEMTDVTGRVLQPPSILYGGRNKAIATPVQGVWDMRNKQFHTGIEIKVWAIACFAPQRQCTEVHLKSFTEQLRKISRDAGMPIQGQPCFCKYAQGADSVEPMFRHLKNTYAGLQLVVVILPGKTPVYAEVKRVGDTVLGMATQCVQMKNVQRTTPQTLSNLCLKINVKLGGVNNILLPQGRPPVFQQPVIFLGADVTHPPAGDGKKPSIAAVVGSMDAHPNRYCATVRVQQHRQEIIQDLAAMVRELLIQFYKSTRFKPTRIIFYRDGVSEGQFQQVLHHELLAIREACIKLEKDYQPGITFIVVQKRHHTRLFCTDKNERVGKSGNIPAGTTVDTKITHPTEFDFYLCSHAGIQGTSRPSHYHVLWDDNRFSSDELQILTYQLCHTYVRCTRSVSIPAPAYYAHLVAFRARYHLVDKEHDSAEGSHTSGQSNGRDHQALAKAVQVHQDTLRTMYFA
UniProt Q9UPQ9: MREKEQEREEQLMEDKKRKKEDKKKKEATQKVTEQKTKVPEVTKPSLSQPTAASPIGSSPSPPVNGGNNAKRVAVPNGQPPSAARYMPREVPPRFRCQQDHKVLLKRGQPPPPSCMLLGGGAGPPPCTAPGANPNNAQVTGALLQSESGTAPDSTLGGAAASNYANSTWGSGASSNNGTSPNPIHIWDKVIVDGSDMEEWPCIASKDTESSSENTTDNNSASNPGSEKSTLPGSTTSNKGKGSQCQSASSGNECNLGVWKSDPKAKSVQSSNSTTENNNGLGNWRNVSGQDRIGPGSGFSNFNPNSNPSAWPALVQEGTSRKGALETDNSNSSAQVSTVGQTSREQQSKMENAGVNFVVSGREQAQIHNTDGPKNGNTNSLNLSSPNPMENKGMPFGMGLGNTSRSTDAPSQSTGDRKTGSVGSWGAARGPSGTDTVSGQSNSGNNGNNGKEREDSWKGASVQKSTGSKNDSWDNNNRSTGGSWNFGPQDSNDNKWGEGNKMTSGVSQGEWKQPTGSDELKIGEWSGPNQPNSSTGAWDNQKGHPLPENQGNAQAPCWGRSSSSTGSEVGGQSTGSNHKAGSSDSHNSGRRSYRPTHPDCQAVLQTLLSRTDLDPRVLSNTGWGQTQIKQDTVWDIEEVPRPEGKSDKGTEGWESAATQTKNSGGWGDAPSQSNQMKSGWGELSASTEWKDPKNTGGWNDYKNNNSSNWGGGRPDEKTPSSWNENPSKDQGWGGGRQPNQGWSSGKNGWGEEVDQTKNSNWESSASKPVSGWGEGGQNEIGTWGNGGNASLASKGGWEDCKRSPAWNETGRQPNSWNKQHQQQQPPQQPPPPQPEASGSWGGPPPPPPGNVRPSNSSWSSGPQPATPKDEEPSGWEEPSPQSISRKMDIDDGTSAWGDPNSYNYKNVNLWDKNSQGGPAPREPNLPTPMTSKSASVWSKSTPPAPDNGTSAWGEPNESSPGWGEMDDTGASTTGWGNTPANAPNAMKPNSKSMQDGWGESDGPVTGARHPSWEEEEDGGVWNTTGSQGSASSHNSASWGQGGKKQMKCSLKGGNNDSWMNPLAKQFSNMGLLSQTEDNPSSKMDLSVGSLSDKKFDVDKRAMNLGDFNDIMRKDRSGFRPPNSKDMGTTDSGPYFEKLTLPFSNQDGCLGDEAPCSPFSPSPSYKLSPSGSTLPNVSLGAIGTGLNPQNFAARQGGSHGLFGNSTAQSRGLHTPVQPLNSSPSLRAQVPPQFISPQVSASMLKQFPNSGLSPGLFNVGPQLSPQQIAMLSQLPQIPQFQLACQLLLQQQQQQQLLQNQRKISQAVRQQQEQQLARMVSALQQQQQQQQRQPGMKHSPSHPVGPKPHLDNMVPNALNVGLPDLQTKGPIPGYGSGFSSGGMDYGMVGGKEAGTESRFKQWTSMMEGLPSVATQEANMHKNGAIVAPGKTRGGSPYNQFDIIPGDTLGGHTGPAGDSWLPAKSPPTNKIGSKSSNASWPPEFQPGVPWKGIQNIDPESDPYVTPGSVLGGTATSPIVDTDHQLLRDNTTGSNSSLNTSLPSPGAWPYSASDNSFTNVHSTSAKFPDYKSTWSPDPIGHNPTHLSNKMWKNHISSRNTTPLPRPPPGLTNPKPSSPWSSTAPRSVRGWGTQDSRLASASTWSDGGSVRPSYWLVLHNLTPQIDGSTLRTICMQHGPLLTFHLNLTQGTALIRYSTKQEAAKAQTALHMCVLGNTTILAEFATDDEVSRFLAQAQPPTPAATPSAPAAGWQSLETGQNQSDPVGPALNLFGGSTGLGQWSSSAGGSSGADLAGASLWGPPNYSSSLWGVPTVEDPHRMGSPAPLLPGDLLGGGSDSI
UniProt Q8NDV7: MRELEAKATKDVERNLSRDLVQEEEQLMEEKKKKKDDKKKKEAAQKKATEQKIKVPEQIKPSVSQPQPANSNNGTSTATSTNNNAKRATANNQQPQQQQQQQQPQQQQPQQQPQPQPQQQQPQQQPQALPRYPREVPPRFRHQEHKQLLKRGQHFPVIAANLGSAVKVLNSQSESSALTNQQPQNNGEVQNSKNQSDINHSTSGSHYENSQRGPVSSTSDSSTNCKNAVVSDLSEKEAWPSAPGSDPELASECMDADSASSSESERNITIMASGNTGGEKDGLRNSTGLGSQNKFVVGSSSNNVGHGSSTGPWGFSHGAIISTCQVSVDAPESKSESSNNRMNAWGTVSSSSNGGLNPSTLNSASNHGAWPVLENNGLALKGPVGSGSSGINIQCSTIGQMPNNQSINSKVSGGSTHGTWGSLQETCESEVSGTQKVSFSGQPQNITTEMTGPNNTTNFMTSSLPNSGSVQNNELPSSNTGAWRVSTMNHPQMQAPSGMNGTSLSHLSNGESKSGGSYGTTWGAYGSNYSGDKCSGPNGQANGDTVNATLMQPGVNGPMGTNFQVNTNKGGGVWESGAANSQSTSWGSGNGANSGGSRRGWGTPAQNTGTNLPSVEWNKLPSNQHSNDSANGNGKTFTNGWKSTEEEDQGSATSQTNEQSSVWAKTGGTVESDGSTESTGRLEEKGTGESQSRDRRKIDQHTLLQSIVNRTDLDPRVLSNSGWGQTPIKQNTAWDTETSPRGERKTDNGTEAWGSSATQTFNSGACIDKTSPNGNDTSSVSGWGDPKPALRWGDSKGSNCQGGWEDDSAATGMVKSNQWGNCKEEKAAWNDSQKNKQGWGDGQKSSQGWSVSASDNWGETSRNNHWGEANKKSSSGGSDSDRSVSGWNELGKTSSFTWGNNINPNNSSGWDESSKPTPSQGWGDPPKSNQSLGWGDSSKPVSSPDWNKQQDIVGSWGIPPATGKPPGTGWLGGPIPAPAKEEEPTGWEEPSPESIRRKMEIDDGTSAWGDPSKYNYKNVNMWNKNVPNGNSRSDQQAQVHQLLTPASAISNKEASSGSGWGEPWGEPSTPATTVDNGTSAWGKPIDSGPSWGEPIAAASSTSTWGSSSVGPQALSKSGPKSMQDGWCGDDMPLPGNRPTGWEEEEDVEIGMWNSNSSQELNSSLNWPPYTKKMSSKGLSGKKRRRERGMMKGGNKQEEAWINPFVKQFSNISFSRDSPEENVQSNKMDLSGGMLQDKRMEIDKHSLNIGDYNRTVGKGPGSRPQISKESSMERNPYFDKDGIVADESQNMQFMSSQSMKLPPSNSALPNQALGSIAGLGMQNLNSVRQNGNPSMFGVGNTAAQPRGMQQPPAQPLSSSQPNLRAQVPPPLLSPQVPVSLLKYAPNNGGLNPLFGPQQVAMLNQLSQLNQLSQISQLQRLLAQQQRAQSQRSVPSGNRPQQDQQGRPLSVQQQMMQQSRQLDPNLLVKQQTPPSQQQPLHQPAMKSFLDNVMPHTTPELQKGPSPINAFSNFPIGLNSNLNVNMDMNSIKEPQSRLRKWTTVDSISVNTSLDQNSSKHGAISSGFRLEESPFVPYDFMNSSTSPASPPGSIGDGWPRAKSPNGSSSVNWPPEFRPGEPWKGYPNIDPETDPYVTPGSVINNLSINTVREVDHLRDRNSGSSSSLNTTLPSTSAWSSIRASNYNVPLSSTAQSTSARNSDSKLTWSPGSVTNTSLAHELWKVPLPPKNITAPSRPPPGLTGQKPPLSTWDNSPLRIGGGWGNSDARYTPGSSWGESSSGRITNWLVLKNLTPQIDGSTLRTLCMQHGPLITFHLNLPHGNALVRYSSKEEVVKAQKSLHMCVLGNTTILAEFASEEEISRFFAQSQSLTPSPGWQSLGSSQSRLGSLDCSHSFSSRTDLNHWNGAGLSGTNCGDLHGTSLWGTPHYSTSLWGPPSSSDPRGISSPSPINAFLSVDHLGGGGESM

For assay [1], the target named is Argonaute 2 (human (endogenous in hSAECs)) (UniProt Q9UKV8). In words: co-IP; endogenous AGO2 precipitated with mouse IgA anti-AGO2 (sc-53521) from hSAEC lysates (Ctrl C4 and LIMD1 KO C2 clones); NP-40 buffer (150 mM NaCl, 50 mM tris-HCl pH 8.0, 0.7% NP-40, 5% glycerol), overnight at 4°C, Protein L magnetic beads; blots for TNRC6A and TNRC6B.
The target is the same in assay [2]. The assay can be described thus: proximity ligation; Duolink in situ PLA in fixed, permeabilised hSAECs (Ctrl C4 and LIMD1 KO C2) with mouse anti-AGO2 and rabbit anti-GW182/TNRC6A; foci per cell counted.

These are yes or no findings as the source states them, for the method shown. Binding seen in cells or lysates may run through a third protein. Some entries that bind do so weakly or less than the wild type.

For “trinucleotide repeat-containing 6B (from UniProt Q9UPQ9 1-1833)”, in assay [1], the binding result is “binds”. As to “trinucleotide repeat-containing 6A (from UniProt Q8NDV7 1-1962)”, the binding entry in assay [1] and in assay [2] was “binds” in each case.
